# Test results: PubChem BioAssay AID540276 (National Center for Advancing Translational Sciences (NCATS), 2011)
# In all, about 300,000 compounds went through this assay and about 5,400 (1.8%) were called active. Inconclusive results, whose numbers are uncertain, are shown with a selection of clear calls. The call rests on the fitted dose curve; tested in HEK293 cells. Potencies of inconclusive entries are doubtful fits and often do not repeat.
# Assay: qHTS for inhibitors of binding or entry into cells for Marburg Virus
# Conditions: Marburg virus pseudotyped entry inhibition, cell reporter; activity change, negative = inhibition: at 37.8 µM (top of the series) unless noted
# On the % scale 0 is the no-effect control and ±100 the full control effect; potency means the concentration at half of the fitted maximal effect.
Compound,Potency,"activity change, negative = inhibition"
O=S(=O)(/N=C(/c1ccc(Cl)cc1)N1CCOCC1)c1ccc(Cl)cc1,"inconclusive: 0.398 µM [inhibitor, full curve]",
COc1cccc(OC)c1OCCCOc1ccc([N+](=O)[O-])cc1Cl,"inconclusive: 12.6 µM [inhibitor, partial curve]",
Fc1ccccc1N1CCN(c2nccn3nc(-c4ccc(Br)cc4)cc23)CC1,,inactive: -3.24% [at 46.1 µM]
O=C(CC1(O)C(=O)N(Cc2ccccc2Cl)c2ccccc21)c1ccco1 (centres undefined),"inconclusive: 0.73 µM [activator, single point]",
Cc1ccc(S(=O)(=O)CCc2nnc(NC(=O)c3ccco3)s2)cc1,,inactive: 7.67% [at 46.1 µM]
O=C(N/N=C/c1ccccc1O)/C(=C/c1ccccc1)CCO,"inconclusive: 6.31 µM [inhibitor, full curve, poor fit]",
COc1ccc(C(=O)C2CCCN(Cc3ccc(Sc4nncn4C)o3)C2)cc1F (centres undefined),,inactive: -2.09% [at 46.1 µM]
COc1ccc(C(=O)Cc2ccc3c(c2)OCO3)c(O)c1,"inconclusive: 2.51 µM [activator, partial curve]",
COc1ccc(/C=N/NC(=O)c2cccc(NC(=O)c3ccccc3Cl)c2)cc1,"inconclusive: 0.461 µM [inhibitor, partial curve, poor fit]",
O=C(C[n+]1ccc(-c2nnc3n2CCC3)cc1)c1ccc(Cl)c(Cl)c1,"inconclusive: 12.6 µM [activator, single point]",
COC(=O)c1sc(-c2ccc(C(C)(C)C)cc2)cc1NC(=O)/C=C/C(=O)O,"inconclusive: 35.5 µM [inhibitor, single point]",
CCc1ccc2[nH]c(=O)c(CN(Cc3ccccc3)C(=O)Nc3ccccc3OC)cc2c1,"inconclusive: 25.9 µM [inhibitor, partial curve, poor fit]",
CC(C)CNC(=O)NC(=O)COc1ncnc2sccc12,"inconclusive: 0.517 µM [inhibitor, single point]",
O=C1N=C2C=CC(Cl)=CC2C(c2ccccc2)=N1 (centres undefined),,inactive: 9.05%
CC(NC(=O)CCN1C(=O)c2ccccc2C1=O)c1ccc2c(c1)CCCC2 (centres undefined),"inconclusive: 0.1 µM [activator, full curve, poor fit]",
O=C(Nc1ccc(NC(=O)c2cccs2)cc1)c1ccccc1,"inconclusive: 3.55 µM [activator, single point]",
Cc1cccc(Cn2c(C)nc3ccc([N+](=O)[O-])cc3c2=O)c1,"inconclusive: 10 µM [inhibitor, partial curve, poor fit]",
Cc1cc(C(=O)Nc2ccncc2)ccc1[N+](=O)[O-],"inconclusive: 3.16 µM [inhibitor, partial curve]",
COc1cc(CNCCSc2nnnn2C)cc(Cl)c1OCc1ccccc1,"inconclusive: 12.6 µM [inhibitor, single point]",
CCCCCCC/C(C)=N/NC(=O)CC(=O)NCCc1ccccc1,"inconclusive: 4.61 µM [inhibitor, partial curve, poor fit]",
O=C(c1cc2ccccc2o1)N1CCC(N2CCC(C(=O)N3CCCC3)CC2)CC1,,inactive: -13.8% [at 46.1 µM]
CC1(OC(=O)C2CCCC2)C(=O)C=C2C=C(c3ccsc3)N(CCN3CCOCC3)C=C2C1=O (centres undefined),"inconclusive: 0.0027 µM [activator, full curve, poor fit]",
CCOc1ccc(CCN2CN(CC)CNC2=S)cc1OCC,"inconclusive: 3.16 µM [inhibitor, single point]",

Compound,Potency,"activity change, negative = inhibition"
CC1=NC=CC2C1=Nc1ccccc12 (centres undefined),,inactive: -0.64%
S=C1NCN(Cc2ccco2)CN1Cc1ccco1,,inactive: -4.47%
O=C(c1ccco1)N1CCN=C1SCc1c(F)cccc1Cl,,inactive: -2.96% [at 46.1 µM]
Cc1ccc2cc(C3CC(c4ccco4)=NN3S(=O)(=O)c3ccccc3)c(Cl)nc2c1 (centres undefined),active: 2.59 µM,
CCc1c(C)nc2nncn2c1NCc1ccc(Cl)cc1,"inconclusive: 35.5 µM [inhibitor, single point]",
CC(C)=CCn1cnc2c1C(NOCc1ccccc1)=NCN2,"inconclusive: 0.299 µM [activator, partial curve, poor fit]",
CCOC(=O)C1=C(CNCc2ccccc2Cl)NC(=O)NC1c1cccc([N+](=O)[O-])c1 (centres undefined),"inconclusive: 7.08 µM [inhibitor, partial curve, poor fit]",
CCOc1ccc(N2CC(C(=O)NC(C)C)CC2=O)cc1 (centres undefined),,inactive: -0.618%
O=C(NCC(c1ccco1)N1CCCC1)c1cc2cc(Cl)ccc2o1 (centres undefined),"inconclusive: 35.5 µM [inhibitor, single point]",
CCc1ccc(Nc2nc3ccccc3c(=O)s2)cc1,"inconclusive: 2.51 µM [activator, full curve]",
Cc1cc(OCCSc2nnc(-c3cccs3)n2C)ccc1Cl,"inconclusive: 35.5 µM [inhibitor, single point]",
CC(C)(Oc1ccc(Br)cc1)C(=O)Nc1cc(-c2nc3ccccc3[nH]2)ccc1Cl,"inconclusive: 6.31 µM [activator, single point]",
S=C(c1cn(CCOc2ccccc2)c2ccccc12)N1CCCC1,"inconclusive: 35.5 µM [inhibitor, single point]",
CN1CCN(CC(=O)N2c3ccccc3C(C)(c3ccc(Cl)cc3)CC2(C)C)CC1 (centres undefined),"inconclusive: 35.5 µM [inhibitor, single point]",
CC(C)CNC(=S)Nc1ccc(Oc2ccccc2)cc1,"inconclusive: 35.5 µM [inhibitor, single point]",
Fc1ccc(N2CCN(Cc3cc4c(cc3Br)OCO4)CC2)cc1,"inconclusive: 17.8 µM [inhibitor, partial curve, poor fit]",
C=CCc1ccccc1OCCNCCCOC,"inconclusive: 3.16 µM [inhibitor, single point]",
Cc1ccc(CSCC(=O)Nc2cc(S(=O)(=O)N3CCOCC3)ccc2OC(C)C)cc1,"inconclusive: 35.5 µM [inhibitor, single point]",
COc1cc(C(C(=O)NC2CCCCC2)N(Cc2cccs2)C(=O)Cc2c[nH]c3ccccc23)cc(OC)c1OC (centres undefined),,inactive: -32.5%
CC(C)Oc1ccc2c3c(c(=O)oc2c1)CCC3,"inconclusive: 1.83 µM [inhibitor, full curve, poor fit]",
CC(C)(Nc1ccccc1)C(=O)c1ccccc1,"inconclusive: 31.6 µM [activator, single point]",
CCCOc1ccc(/C=N/Nc2ccccc2[N+](=O)[O-])c(OCCC)c1,,inactive: -10.3%
COc1ccc(S(=O)(=O)N(CC(=O)NCc2ccco2)c2ccccc2)cc1,,inactive: -3.73%

Compound,Potency,"activity change, negative = inhibition"
COc1ccc(C(NC(=O)c2c(F)c(F)c(F)c(F)c2F)c2ccccc2)cc1 (centres undefined),"inconclusive: 17.8 µM [inhibitor, partial curve, poor fit]",
NC(=O)COC(=O)c1cc(-c2ccco2)nc2ccccc12,,inactive: 8.12% [at 46.1 µM]
CC(Oc1cccc(Cl)c1)C(=O)Nc1ccccc1C(=O)N1CCCCC1 (centres undefined),,inactive: -22.8%
COc1ccc(S(=O)(=O)N2CCN(C(=O)CCNC(=O)c3ccccc3Cl)CC2)cc1,,inconclusive: 8.49% [activator]
Cc1nnc(SCCn2c(N(C)Cc3ccccc3)nc3c2c(=O)[nH]c(=O)n3C)s1,,inactive: -0.259%
Cc1ccc(-n2ncc3c(=O)n(CC(=O)NC4CCCCC4)cnc32)cc1,,inactive: 13.8%
CCCN1C(=O)/C(=N\OCC(=O)Nc2ccc(C(C)C)cc2)c2ccccc21,"inconclusive: 1.26 µM [inhibitor, single point]",
CCOC(=O)C1CCN(C(=O)CCS(=O)(=O)Cc2ccccc2)CC1,,inactive: -0.322% [at 46.1 µM]
CC(C)c1ccc(S(=O)(=O)c2cnc(SCC(=O)Nc3ccc4c(c3)OCCO4)[nH]c2=O)cc1,"inconclusive: 12.6 µM [activator, partial curve, poor fit]",
O=C(C1CCC1)N1CCc2cc(S(=O)(=O)Nc3ccc4c(c3)OCO4)ccc21,"inconclusive: 3.98 µM [inhibitor, partial curve, poor fit]",
Cc1ccc(N=C2NC(=O)C(CO)(CO)S2)cc1,,inactive: 7.67%
COc1ccc(C2C(C#N)=C(/N=C/N3CCN(C)CC3)OC3=C2C(=O)CC(C)(C)C3)cc1OC (centres undefined),,inactive: 15.2%
O=[N+]([O-])c1ccccc1-c1cc(-c2ccccc2O)n[nH]1,"inconclusive: 3.16 µM [activator, single point]",
CCCC(=O)Nc1ccc(Cl)c(NC(=O)c2ccc([N+](=O)[O-])cc2Cl)c1,"inconclusive: 14.1 µM [inhibitor, single point]",
C=CC1=C2C=C(C3CC3)N(C3CCCCC3)C=C2C(=O)C(C)(OC(=O)c2ccco2)C1=O (centres undefined),inactive,
COc1ccc(OCC(=O)N/N=C(\C)c2ccc(OC)cc2)cc1,,inactive: -21.2% [at 46.1 µM]
Cc1ccccc1NC(=O)/C=C/c1cccs1,"inconclusive: 31.6 µM [inhibitor, single point]",
CCN1C(=NCc2ccc3c(c2)OCO3)N[C@@H](c2ccccc2)[C@H](C(=O)OC)[C@H]1C,"inconclusive: 2.99 µM [inhibitor, single point]",
CCCCCCCOC(=O)C1=C(C)Nc2ncnn2C1c1cccs1 (centres undefined),"inconclusive: 11.2 µM [inhibitor, partial curve]",
Cc1ccc(C(c2nnnn2C2CCCCC2)N2CCc3ccccc32)cc1 (centres undefined),"inconclusive: 35.5 µM [inhibitor, single point]",
CCC(=O)Nc1cccc(NC(=O)CSc2nnnn2Cc2ccccc2)c1,,inactive: 7.96%
COc1cccc(C(c2nnnn2Cc2ccco2)N2CCN(Cc3ccccc3)CC2)c1OC (centres undefined),"inconclusive: 22.4 µM [inhibitor, partial curve, poor fit]",
CC[C@]12c3[nH]c4ccc(OC)cc4c3CCN1C(=O)C(CC(=O)NC/C=C(\C)CCC=C(C)C)C[C@@H]2C(=O)N1CCN(C(=O)c2ccco2)CC1 (some centres undefined),,inactive: -8.87%

# Part of the list above in order of SMILES length, low to high:
Compound,Potency,"activity change, negative = inhibition"
CC(C)CNC(=O)NC(=O)COc1ncnc2sccc12,"inconclusive: 0.517 µM [inhibitor, single point]",
NC(=O)COC(=O)c1cc(-c2ccco2)nc2ccccc12,,inactive: 8.12% [at 46.1 µM]
COc1ccc(C(NC(=O)c2c(F)c(F)c(F)c(F)c2F)c2ccccc2)cc1 (centres undefined),"inconclusive: 17.8 µM [inhibitor, partial curve, poor fit]",
